# Measurements from the supplement of paper PMC12819154, “High-throughput peptide-centric local stability assay extends protein–ligand identification to membrane proteins, tissues and bacteria” (Nature Structural & Molecular Biology, 2025).
# Chains of the proteins cited; added tags and fusions are not shown. Lines headed by an entry give the natural chain unless they say otherwise; changes in a name come on top.
# UniProt P24218: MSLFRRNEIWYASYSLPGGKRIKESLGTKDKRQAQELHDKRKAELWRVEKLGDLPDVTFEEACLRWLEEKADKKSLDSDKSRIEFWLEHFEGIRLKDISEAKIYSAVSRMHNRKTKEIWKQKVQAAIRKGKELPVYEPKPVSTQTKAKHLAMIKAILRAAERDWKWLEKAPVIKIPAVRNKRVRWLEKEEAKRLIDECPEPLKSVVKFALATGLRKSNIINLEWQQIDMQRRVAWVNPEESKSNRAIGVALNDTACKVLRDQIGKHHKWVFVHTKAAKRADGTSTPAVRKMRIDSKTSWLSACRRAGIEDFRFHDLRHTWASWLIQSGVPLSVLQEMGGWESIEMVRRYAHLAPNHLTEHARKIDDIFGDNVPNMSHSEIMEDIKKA
# UniProt P16926: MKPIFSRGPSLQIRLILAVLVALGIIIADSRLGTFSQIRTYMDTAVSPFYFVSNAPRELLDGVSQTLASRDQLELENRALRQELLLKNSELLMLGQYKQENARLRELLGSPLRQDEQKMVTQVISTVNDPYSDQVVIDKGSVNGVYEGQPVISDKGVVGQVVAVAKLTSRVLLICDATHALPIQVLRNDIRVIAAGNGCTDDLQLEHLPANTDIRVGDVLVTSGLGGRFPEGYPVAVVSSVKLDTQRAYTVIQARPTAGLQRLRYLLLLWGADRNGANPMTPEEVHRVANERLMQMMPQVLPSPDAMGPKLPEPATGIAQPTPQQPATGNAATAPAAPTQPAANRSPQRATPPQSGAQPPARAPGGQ
# UniProt P19930: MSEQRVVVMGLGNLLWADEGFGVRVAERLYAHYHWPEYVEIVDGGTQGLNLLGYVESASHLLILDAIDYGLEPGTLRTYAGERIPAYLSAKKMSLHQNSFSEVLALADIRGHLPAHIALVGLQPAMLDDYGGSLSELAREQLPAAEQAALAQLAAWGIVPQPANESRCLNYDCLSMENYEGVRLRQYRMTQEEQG
# UniProt P27245: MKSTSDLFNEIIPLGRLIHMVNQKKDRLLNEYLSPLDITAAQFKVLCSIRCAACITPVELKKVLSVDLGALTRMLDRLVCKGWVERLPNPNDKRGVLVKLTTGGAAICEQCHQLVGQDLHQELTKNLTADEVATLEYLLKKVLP
# UniProt P26458: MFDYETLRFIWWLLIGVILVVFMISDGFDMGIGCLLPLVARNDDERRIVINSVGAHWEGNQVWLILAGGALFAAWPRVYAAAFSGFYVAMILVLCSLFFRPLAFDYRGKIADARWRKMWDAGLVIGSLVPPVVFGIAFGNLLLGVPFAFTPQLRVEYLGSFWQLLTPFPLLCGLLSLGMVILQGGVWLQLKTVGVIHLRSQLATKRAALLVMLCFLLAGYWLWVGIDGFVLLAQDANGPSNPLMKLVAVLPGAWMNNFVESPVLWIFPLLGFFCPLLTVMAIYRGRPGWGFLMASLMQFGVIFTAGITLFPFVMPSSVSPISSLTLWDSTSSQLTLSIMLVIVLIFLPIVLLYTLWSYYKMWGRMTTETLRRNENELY
# UniProt P24175: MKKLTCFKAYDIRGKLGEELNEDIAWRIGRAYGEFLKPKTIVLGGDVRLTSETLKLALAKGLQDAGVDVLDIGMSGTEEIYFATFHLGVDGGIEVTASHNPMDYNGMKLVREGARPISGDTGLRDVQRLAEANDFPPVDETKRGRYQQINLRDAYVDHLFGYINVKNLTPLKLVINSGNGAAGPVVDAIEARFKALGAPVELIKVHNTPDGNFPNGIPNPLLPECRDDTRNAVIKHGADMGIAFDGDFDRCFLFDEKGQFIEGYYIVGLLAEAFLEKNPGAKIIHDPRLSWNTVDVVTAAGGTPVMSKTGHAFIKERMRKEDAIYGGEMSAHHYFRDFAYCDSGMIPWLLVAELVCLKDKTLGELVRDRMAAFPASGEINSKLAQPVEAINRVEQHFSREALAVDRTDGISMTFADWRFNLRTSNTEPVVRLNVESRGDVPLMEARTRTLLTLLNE
# UniProt P22186: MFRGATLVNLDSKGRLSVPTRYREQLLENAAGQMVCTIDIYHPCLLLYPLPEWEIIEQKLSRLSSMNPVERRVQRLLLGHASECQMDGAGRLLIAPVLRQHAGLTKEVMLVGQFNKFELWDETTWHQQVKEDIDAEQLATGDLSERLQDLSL
# UniProt P25397: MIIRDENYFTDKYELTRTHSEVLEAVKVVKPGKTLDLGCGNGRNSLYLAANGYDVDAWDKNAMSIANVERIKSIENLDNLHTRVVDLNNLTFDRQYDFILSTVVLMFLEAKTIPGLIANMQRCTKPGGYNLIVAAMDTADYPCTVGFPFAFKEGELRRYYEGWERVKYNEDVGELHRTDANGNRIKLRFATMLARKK
# UniProt P24228: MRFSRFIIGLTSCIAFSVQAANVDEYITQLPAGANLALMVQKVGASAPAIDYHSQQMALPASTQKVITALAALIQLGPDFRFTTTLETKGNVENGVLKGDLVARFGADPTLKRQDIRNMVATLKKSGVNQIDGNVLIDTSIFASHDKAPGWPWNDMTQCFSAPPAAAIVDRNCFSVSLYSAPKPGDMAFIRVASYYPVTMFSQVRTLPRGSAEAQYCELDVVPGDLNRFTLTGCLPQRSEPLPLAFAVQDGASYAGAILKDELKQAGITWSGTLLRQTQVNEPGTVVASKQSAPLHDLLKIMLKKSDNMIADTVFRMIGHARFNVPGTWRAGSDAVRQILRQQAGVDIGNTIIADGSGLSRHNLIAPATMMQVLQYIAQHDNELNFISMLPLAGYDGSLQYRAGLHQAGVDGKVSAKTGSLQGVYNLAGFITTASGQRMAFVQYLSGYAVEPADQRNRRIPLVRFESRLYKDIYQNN
# UniProt P27375: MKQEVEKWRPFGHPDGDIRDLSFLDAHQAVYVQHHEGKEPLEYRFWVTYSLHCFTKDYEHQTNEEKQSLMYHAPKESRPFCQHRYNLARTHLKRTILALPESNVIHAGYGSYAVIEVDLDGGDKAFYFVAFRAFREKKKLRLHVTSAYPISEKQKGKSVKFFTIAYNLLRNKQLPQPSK
# UniProt P28912: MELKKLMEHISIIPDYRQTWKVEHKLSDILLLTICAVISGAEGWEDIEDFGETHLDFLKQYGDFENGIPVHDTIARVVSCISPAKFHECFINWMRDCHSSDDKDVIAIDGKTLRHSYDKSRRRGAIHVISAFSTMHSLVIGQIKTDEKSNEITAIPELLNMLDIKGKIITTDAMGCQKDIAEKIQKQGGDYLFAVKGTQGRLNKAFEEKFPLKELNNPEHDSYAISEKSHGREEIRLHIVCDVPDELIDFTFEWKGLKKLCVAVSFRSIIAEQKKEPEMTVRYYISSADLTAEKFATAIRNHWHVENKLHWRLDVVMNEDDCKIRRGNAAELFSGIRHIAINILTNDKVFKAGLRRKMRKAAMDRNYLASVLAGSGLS
# UniProt P23869: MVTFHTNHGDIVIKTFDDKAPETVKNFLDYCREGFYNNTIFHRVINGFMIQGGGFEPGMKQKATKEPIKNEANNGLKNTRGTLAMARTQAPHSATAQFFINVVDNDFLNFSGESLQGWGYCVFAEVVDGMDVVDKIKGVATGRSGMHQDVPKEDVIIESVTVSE
# UniProt P16681: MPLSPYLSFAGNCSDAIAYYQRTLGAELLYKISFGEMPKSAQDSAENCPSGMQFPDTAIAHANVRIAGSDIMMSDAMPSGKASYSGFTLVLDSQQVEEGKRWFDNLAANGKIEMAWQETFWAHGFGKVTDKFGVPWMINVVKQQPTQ
# UniProt P28905: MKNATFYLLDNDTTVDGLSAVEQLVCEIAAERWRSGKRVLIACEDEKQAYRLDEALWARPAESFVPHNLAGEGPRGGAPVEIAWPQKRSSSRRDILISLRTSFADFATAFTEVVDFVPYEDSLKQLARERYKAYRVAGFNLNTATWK
# UniProt P25728: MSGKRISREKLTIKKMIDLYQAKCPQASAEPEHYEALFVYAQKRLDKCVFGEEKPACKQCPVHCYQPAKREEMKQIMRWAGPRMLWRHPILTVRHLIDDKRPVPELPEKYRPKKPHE
# UniProt P19934: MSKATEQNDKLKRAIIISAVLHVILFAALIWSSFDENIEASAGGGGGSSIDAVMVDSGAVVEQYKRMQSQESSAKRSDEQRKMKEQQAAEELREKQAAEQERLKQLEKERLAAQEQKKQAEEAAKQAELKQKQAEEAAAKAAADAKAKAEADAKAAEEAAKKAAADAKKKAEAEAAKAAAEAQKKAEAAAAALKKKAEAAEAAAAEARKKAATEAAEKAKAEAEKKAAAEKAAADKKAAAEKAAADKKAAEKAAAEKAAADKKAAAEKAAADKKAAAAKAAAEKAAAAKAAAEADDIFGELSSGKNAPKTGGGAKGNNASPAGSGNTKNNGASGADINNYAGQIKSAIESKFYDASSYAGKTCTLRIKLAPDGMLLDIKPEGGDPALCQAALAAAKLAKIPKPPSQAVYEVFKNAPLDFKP
# UniProt P27896: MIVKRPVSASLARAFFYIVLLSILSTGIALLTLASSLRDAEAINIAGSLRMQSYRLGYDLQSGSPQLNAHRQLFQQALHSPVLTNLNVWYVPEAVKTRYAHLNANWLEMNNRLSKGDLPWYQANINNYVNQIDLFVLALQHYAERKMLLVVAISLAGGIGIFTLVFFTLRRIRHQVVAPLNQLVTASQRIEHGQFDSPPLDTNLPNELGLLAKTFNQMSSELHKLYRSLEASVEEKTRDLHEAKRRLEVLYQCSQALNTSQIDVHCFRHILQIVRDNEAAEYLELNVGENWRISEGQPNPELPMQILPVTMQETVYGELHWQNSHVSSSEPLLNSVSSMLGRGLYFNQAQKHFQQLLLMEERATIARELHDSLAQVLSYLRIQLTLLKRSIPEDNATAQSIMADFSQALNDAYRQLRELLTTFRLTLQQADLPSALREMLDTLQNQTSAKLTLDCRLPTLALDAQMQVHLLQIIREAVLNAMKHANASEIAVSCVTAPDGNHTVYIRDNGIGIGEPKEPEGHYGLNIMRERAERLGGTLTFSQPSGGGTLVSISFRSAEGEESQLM
# UniProt P21362: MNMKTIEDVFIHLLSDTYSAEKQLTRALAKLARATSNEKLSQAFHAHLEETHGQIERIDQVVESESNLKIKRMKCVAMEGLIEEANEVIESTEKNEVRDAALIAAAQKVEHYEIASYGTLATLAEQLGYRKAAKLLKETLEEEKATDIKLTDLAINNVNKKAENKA
# UniProt P25665: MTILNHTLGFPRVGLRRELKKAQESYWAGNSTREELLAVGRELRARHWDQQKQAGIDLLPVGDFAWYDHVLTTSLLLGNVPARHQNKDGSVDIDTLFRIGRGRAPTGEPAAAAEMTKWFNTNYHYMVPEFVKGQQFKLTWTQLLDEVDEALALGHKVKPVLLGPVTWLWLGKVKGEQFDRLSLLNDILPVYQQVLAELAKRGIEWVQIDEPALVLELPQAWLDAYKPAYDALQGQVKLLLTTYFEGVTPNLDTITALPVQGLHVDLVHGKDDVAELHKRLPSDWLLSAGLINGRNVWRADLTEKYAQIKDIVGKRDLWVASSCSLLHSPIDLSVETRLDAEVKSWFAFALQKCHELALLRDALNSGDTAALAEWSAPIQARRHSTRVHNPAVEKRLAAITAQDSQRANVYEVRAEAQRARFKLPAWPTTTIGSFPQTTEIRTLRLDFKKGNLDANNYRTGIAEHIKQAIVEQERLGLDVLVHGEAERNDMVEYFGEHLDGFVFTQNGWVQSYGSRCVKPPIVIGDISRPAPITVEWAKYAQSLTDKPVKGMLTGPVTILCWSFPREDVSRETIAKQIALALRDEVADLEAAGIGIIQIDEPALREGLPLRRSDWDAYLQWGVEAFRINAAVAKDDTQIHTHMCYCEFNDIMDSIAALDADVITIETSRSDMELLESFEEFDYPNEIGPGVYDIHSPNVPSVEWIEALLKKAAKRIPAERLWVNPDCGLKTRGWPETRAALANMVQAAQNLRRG
# UniProt P24169, whole entry: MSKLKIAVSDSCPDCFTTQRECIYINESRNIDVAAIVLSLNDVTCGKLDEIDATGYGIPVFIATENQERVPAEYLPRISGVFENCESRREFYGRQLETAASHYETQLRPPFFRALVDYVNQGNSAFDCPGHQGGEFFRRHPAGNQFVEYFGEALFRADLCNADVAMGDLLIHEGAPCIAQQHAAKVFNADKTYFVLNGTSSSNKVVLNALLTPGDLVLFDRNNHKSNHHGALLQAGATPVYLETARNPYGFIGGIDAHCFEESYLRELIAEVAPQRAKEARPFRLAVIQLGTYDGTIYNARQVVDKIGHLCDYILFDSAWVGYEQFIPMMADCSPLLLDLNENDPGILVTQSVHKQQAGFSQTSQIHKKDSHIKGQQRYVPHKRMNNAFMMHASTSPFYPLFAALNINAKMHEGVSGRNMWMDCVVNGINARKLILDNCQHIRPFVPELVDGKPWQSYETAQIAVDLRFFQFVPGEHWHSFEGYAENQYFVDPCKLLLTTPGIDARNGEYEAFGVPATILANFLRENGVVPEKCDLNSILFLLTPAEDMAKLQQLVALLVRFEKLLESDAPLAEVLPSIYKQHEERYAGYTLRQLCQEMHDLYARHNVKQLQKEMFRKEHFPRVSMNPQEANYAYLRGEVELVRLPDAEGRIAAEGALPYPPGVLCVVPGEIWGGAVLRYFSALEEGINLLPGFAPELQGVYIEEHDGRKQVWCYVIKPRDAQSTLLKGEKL
# This is a selection; strong and weak results do not stand in their true shares. Small differences around the control level are noise.
# Compound: Nc1ncnc2c1ncn2[C@@H]1O[C@H](COP(=O)(O)OP(=O)(O)OP(=O)(O)O)[C@@H](O)[C@H]1O [adenosine 5'-triphosphate]
# Test: log2 fold change of tryptic peptide abundance, ligand vs vehicle (limited proteolysis) (log2 ratio); higher = more trypsin-susceptible (destabilized)
# Details: ligand concentration: 5 mM; sample: E. coli desalted lysate; replicate design: treated before aliquoting
# Description: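 HT-PELSA: desalted E. coli K-12 BW25113 lysate (with 12 mM MgCl2) incubated with 5 mM ATP (pH 7) or water for 30 min at 25 C, then a 4 min trypsin pulse at 22 C. Peptides were quantified by DIA-MS (4 replicates). Value is the peptide log2 fold change (treated/control); negative = stabilized. Scale: negative = ligand-stabilized region.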
# 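Further: lysate desalted by size exclusion to strip endogenous ATP, peptide intensities built from DIA-NN precursor signals, and peptides missing any value discarded before comparison.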
row,Target,log2 fold change
1,"UniProt P22524 (peptide sequence: STGSDVDRQKLQEK, peptide start residue: 141)",-0.316
2,"UniProt P24218 (peptide sequence: YAHLAPNHLTEHAR, peptide start residue: 349)",-0.878
3,"UniProt P16926 (peptide sequence: NSELLMLGQYK, peptide start residue: 88)",1.46
4,"UniProt P19930 (peptide sequence: IPAYLSAK, peptide start residue: 84)",0.084
5,"UniProt P23721 (peptide sequence: YGVIYAGAQK, peptide start residue: 189)",-0.412
6,"UniProt P27245 (peptide sequence: LIHMVNQK, peptide start residue: 17)",0.371
7,"UniProt P30749 (peptide sequence: DEDGAVVTFTGK, peptide start residue: 26)",0.457
8,"UniProt P26458 (peptide sequence: RNENELY, peptide start residue: 372)",0.333
9,"UniProt P30140 (peptide sequence: LRPCTGGIEPASIMDER, peptide start residue: 262)",-0.443
10,"UniProt P27111 (peptide sequence: CAVVGGNESR, peptide start residue: 290)",1.07
11,"UniProt P16703 (peptide sequence: AYGAELILVTK, peptide start residue: 105)",0.665
12,"UniProt P24175 (peptide sequence: VEQHFSR, peptide start residue: 393)",-0.453
13,"UniProt P28632 (peptide sequence: RPGALQGEIAIAIPAHVR, peptide start residue: 21)",0.0821
14,"UniProt P23256 (peptide sequence: GVAGLINAIR, peptide start residue: 378)",-0.462
15,"UniProt P25906 (peptide sequence: HVAITVLR, peptide start residue: 36)",-0.283
16,"UniProt P25534 (peptide sequence: KAPGVTLHCPDR, peptide start residue: 121)",1.3
17,"UniProt P22186 (peptide sequence: GATLVNLDSK, peptide start residue: 4)",-0.0768
18,"UniProt P28629 (peptide sequence: EAQDLLEK, peptide start residue: 332)",0.645
19,"UniProt P25397 (peptide sequence: TIPGLIANMQR, peptide start residue: 112)",-0.379

row,Target,log2 fold change
1,"UniProt P24228 (peptide sequence: FTLTGCLPQR, peptide start residue: 229)",-0.259
2,"UniProt P27375 (peptide sequence: LHVTSAYPISEK, peptide start residue: 142)",0.338
3,"UniProt P24252 (peptide sequence: VVVLLSHPANPR, peptide start residue: 79)",0.531
4,"UniProt P28912 (peptide sequence: HIAINILTNDKVFK, peptide start residue: 338)",0.467
5,"UniProt P23869 (peptide sequence: EGFYNNTIFHR, peptide start residue: 33)",0.241
6,"UniProt P16681 (peptide sequence: ISFGEMPK, peptide start residue: 32)",-0.417
7,"UniProt P28905 (peptide sequence: VLIACEDEK, peptide start residue: 39)",0.319
8,"UniProt P25728 (peptide sequence: HLIDDKRPVPELPEK, peptide start residue: 95)",-0.202
9,"UniProt P19934 (peptide sequence: KQAEEAAKQAELK, peptide start residue: 118)",-1.31
10,"UniProt P27896 (peptide sequence: HILQIVR, peptide start residue: 269)",-0.573
11,"UniProt P23878 (peptide sequence: EIVTAELIER, peptide start residue: 230)",0.241
12,"UniProt P21362 (peptide sequence: ETLEEEK, peptide start residue: 138)",0.45
13,"UniProt P22731 (peptide sequence: TTLLGTLCGDPR, peptide start residue: 45)",-0.742
14,"UniProt P28305 (peptide sequence: LQDACQR, peptide start residue: 46)",0.488
15,"UniProt P25665 (peptide sequence: DGSVDIDTLFR, peptide start residue: 88)",0.454
16,"UniProt P24171 (peptide sequence: HYQSGAAMPDELQQK, peptide start residue: 521)",0.385
17,"UniProt P24169 (peptide sequence: QQAGFSQTSQIHK, peptide start residue: 348)",-0.671
18,"UniProt P23890 (peptide sequence: SIVTNHVVTQSISELRK, peptide start residue: 61)",0.0691
19,"UniProt P24555 (peptide sequence: VMASQQALQDR, peptide start residue: 50)",0.229

# Taken from the results shown (8 entries):
row,Target,log2 fold change
16,"UniProt P25534 (peptide sequence: KAPGVTLHCPDR, peptide start residue: 121)",1.3
17,"UniProt P22186 (peptide sequence: GATLVNLDSK, peptide start residue: 4)",-0.0768
18,"UniProt P28629 (peptide sequence: EAQDLLEK, peptide start residue: 332)",0.645
19,"UniProt P25397 (peptide sequence: TIPGLIANMQR, peptide start residue: 112)",-0.379
1,"UniProt P24228 (peptide sequence: FTLTGCLPQR, peptide start residue: 229)",-0.259
2,"UniProt P27375 (peptide sequence: LHVTSAYPISEK, peptide start residue: 142)",0.338
3,"UniProt P24252 (peptide sequence: VVVLLSHPANPR, peptide start residue: 79)",0.531
4,"UniProt P28912 (peptide sequence: HIAINILTNDKVFK, peptide start residue: 338)",0.467
